The values below come from paper doi:10.1101/2022.11.09.514853 (bioRxiv, 2022).

Amino acid sequences for entries named in this document (tags omitted). A change or cut given only in a name is not applied to a line headed by its entry. Residues count along the entry.
UniProt O15399, whole entry, looked up, stated change not applied: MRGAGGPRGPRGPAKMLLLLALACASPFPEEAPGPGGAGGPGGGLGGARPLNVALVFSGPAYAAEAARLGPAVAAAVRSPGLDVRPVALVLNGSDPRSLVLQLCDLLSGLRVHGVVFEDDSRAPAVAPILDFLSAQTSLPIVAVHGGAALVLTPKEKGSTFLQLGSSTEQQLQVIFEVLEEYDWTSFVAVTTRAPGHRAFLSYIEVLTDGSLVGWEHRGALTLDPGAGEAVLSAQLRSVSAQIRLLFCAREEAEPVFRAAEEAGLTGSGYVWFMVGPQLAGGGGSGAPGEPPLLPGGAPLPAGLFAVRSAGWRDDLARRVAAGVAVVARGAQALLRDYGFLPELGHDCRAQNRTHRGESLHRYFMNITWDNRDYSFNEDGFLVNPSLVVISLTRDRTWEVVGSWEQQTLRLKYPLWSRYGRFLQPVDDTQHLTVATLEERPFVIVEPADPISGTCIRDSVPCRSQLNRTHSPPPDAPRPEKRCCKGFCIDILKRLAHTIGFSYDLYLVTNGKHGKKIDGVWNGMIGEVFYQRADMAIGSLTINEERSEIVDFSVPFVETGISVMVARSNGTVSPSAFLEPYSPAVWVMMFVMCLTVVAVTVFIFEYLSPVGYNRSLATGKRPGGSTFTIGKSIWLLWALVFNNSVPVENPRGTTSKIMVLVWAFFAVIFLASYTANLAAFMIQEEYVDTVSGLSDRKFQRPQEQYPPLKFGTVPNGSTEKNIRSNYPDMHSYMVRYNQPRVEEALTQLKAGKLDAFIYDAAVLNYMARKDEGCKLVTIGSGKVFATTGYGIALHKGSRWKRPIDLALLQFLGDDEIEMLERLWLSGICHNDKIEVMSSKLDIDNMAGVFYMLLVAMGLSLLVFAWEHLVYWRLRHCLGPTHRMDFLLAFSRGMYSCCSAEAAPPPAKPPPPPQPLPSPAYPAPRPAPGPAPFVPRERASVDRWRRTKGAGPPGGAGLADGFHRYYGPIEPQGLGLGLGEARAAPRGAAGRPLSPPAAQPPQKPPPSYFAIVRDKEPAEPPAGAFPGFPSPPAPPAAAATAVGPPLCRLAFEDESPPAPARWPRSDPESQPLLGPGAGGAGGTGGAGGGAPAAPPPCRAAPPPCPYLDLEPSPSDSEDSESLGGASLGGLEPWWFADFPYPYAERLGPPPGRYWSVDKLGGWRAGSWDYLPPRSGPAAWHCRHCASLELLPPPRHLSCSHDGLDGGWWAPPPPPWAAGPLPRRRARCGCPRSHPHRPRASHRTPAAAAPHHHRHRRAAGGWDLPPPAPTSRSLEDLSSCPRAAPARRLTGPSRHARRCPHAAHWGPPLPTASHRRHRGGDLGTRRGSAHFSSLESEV
UniProt Q00961, 20-839: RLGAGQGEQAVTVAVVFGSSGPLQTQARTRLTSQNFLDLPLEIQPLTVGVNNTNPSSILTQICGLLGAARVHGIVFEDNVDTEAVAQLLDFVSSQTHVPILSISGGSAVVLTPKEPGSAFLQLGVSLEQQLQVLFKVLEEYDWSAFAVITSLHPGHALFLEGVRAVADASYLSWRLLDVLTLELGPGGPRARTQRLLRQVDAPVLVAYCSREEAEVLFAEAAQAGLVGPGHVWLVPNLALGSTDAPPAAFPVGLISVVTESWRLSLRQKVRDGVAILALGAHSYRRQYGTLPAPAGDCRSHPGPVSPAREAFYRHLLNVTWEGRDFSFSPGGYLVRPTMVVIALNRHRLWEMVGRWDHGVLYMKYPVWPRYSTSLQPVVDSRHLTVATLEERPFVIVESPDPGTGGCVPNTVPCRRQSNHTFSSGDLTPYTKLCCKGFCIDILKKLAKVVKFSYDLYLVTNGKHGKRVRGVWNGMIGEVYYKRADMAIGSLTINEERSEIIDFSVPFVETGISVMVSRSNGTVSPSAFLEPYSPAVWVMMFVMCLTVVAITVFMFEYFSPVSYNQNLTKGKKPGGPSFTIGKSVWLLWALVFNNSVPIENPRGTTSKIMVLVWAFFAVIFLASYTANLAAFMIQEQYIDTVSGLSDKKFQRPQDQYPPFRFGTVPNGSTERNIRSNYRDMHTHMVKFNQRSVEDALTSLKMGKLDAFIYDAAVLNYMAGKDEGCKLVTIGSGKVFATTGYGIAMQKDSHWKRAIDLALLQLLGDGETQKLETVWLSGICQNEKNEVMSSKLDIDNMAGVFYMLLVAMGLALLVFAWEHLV

The target of assay [1] is human GluN2D, C-terminal domain truncated (M1-P879), Strep-tag II (human) (UniProt O15399). Description: cryo-EM structure.
The target in assay [2] is rat GluN2C (M1-V839), GFP and Strep-tag II, of the N1-N2A-N2C tri-receptor (rat) (UniProt Q00961). In words: pull-down.
The target in assay [3] is human GluN2D S238C, full length (human) (UniProt O15399). In words: cross-linking.
For assay [4], the target named is human GluN1-1a E698C, full length (human) (UniProt Q05586). In words: cross-linking.

These are yes or no findings as the source states them, for the method shown. For part of these data: In cells and extracts the contact can be indirect. Some entries that bind do so weakly or less than the wild type.

Take “human GluN1-1a, C-terminal domain truncated (M1-Q847) (from UniProt Q05586-1 19-847) (receptor)”: in assay [1], the binding entry is “binds”.

Regarding “rat GluN2A (M1-F841), GFP and 6×His tag, of the N1-N2A-N2C tri-receptor (from UniProt Q00959 23-841)”, the binding entry in assay [2] is listed as “binds”.

As for “human GluN2D S238C, full length (from UniProt O15399 28-1336) (receptor)”, in assay [3], the binding result is reported as “binds”. As to “human GluN1-1a E698C, full length (from UniProt Q05586-1 19-938) (receptor)”, the binding result in assay [4] was “binds”. “human GluN1-1a E698C, C-terminal domain deleted (from UniProt Q05586-1 19-847) (receptor)”: the binding entry in assay [1] is recorded as “binds”.

Take “human GluN1-1b, C-terminal domain truncated (M1-Q868) (from UniProt Q05586-6 19-868) (receptor)”: the binding result in assay [1] was “binds”.
